The other results are listed elsewhere or left out.

This note sets out measurements from the supplement of paper PMC8728848.

What all share (test): glycan array binding signal (z-score within array); higher = stronger binding
What all share (conditions): glycan notation: IUPAC condensed, linker removed

Experiment [1] has as its target Gal(b1-4)GlcNAc(b1-3)Gal(b1-4)Glc. The essentials:
(§1)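 Negative Z-scores can be read as non-binding. The Z-score is calculated within each array and then averaged across arrays of one protein sequence at different concentrations or buffers and across linkers. Arrays, 3228 in all, were curated from the Consortium for Functional Glycomics database and kept only where the protein sequence was available.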

Experiment [2] has as its target Gal(b1-4)GlcNAc(b1-3)Gal(b1-4)GlcNAc. A digest of the protocol: as §1
Experiment [3] addresses Gal(b1-4)GlcNAc(b1-3)Gal(b1-4)GlcNAc(b1-2)Man(a1-3)[Gal(b1-4)GlcNAc(b1-3)Gal(b1-4)GlcNAc(b1-2)Man(a1-6)]Man(b1-4)GlcNAc(b1-4)GlcNAc. A digest of the protocol:
as §1

Experiment [4] addresses Gal(b1-4)GlcNAc(b1-3)Gal(b1-4)GlcNAc(b1-2)Man(a1-3)[Gal(b1-4)GlcNAc(b1-3)Gal(b1-4)GlcNAc(b1-2)Man(a1-6)]Man(b1-4)GlcNAc(b1-4)[Fuc(a1-6)]GlcNAc. A digest of the protocol: as §1
In experiment [5] the target is Gal(b1-4)GlcNAc(b1-3)Gal(b1-4)GlcNAc(b1-2)[Gal(b1-4)GlcNAc(b1-3)Gal(b1-4)GlcNAc(b1-6)]Man(a1-6)[Gal(b1-4)GlcNAc(b1-3)Gal(b1-4)GlcNAc(b1-2)Man(a1-3)]Man(b1-4)GlcNAc(b1-4)GlcNAc. A digest of the protocol:
as §1

Experiment [6] addresses Gal(b1-4)GlcNAc(b1-3)Gal(b1-4)GlcNAc(b1-2)[Gal(b1-4)GlcNAc(b1-3)Gal(b1-4)GlcNAc(b1-6)]Man(a1-6)[Gal(b1-4)GlcNAc(b1-3)Gal(b1-4)GlcNAc(b1-2)Man(a1-3)]Man(b1-4)GlcNAc(b1-4)[Fuc(a1-6)]GlcNAc. The essentials: as §1
Experiment [7] has as its target Gal(b1-4)GlcNAc(b1-3)Gal(b1-4)GlcNAc(b1-3)Gal(b1-4)GlcNAc. The essentials:
as §1

The target in experiment [8] is Gal(b1-4)GlcNAc(b1-3)Gal(b1-4)GlcNAc(b1-3)Gal(b1-4)GlcNAc(b1-2)Man(a1-3)[Gal(b1-4)GlcNAc(b1-3)Gal(b1-4)GlcNAc(b1-3)Gal(b1-4)GlcNAc(b1-2)Man(a1-6)]Man(b1-4)GlcNAc(b1-4)GlcNAc. A digest of the protocol: as §1
The target in experiment [9] is Gal(b1-4)GlcNAc(b1-3)Gal(b1-4)GlcNAc(b1-3)Gal(b1-4)GlcNAc(b1-2)Man(a1-3)[Gal(b1-4)GlcNAc(b1-3)Gal(b1-4)GlcNAc(b1-3)Gal(b1-4)GlcNAc(b1-2)Man(a1-6)]Man(b1-4)GlcNAc(b1-4)[Fuc(a1-6)]GlcNAc. The essentials:
as §1

Experiment [10] addresses Gal(b1-4)GlcNAc(b1-3)Gal(b1-4)GlcNAc(b1-3)Gal(b1-4)GlcNAc(b1-2)[Gal(b1-4)GlcNAc(b1-3)Gal(b1-4)GlcNAc(b1-3)Gal(b1-4)GlcNAc(b1-6)]Man(a1-6)[Gal(b1-4)GlcNAc(b1-3)Gal(b1-4)GlcNAc(b1-3)Gal(b1-4)GlcNAc(b1-2)Man(a1-3)]Man(b1-4)GlcNAc(b1-4)[Fuc(a1-6)]GlcNAc. A digest of the protocol: as §1
The target in experiment [11] is Gal(b1-4)GlcNAc(b1-3)Gal(b1-4)GlcNAc(b1-3)Gal(b1-4)GlcNAc(b1-3)Gal(b1-4)GlcNAc(b1-2)Man(a1-3)[Gal(b1-4)GlcNAc(b1-3)Gal(b1-4)GlcNAc(b1-3)Gal(b1-4)GlcNAc(b1-3)Gal(b1-4)GlcNAc(b1-2)Man(a1-6)]Man(b1-4)GlcNAc(b1-4)GlcNAc. A digest of the protocol: as §1
For experiment [12], the target named is Gal(b1-4)GlcNAc(b1-3)Gal(b1-4)GlcNAc(b1-3)Gal(b1-4)GlcNAc(b1-3)Gal(b1-4)GlcNAc(b1-2)Man(a1-3)[Gal(b1-4)GlcNAc(b1-3)Gal(b1-4)GlcNAc(b1-3)Gal(b1-4)GlcNAc(b1-3)Gal(b1-4)GlcNAc(b1-2)Man(a1-6)]Man(b1-4)GlcNAc(b1-4)[Fuc(a1-6)]GlcNAc. A digest of the protocol: as §1
Experiment [13] addresses Gal(b1-4)GlcNAc(b1-3)Gal(b1-4)GlcNAc(b1-3)Gal(b1-4)GlcNAc(b1-3)Gal(b1-4)GlcNAc(b1-2)[Gal(b1-4)GlcNAc(b1-3)Gal(b1-4)GlcNAc(b1-3)Gal(b1-4)GlcNAc(b1-3)Gal(b1-4)GlcNAc(b1-6)]Man(a1-6)[Gal(b1-4)GlcNAc(b1-3)Gal(b1-4)GlcNAc(b1-3)Gal(b1-4)GlcNAc(b1-3)Gal(b1-4)GlcNAc(b1-2)Man(a1-3)]Man(b1-4)GlcNAc(b1-4)[Fuc(a1-6)]GlcNAc. The essentials: as §1
Experiment [14] addresses Gal(b1-4)GlcNAc(b1-3)Gal(b1-4)GlcNAc(b1-3)Gal(b1-4)GlcNAc(b1-3)Gal(b1-4)GlcNAc(b1-3)Gal(b1-4)GlcNAc(b1-2)Man(a1-3)[Gal(b1-4)GlcNAc(b1-3)Gal(b1-4)GlcNAc(b1-3)Gal(b1-4)GlcNAc(b1-3)Gal(b1-4)GlcNAc(b1-3)Gal(b1-4)GlcNAc(b1-2)Man(a1-6)]Man(b1-4)GlcNAc(b1-4)GlcNAc. The essentials:
as §1

Experiment [15] deals with Gal(b1-4)GlcNAc(b1-3)Gal(b1-4)GlcNAc(b1-3)Gal(b1-4)GlcNAc(b1-3)Gal(b1-4)GlcNAc(b1-3)Gal(b1-4)GlcNAc(b1-2)Man(a1-3)[Gal(b1-4)GlcNAc(b1-3)Gal(b1-4)GlcNAc(b1-3)Gal(b1-4)GlcNAc(b1-3)Gal(b1-4)GlcNAc(b1-3)Gal(b1-4)GlcNAc(b1-2)Man(a1-6)]Man(b1-4)GlcNAc(b1-4)[Fuc(a1-6)]GlcNAc. A digest of the protocol: as §1
In experiment [16] the target is Gal(b1-4)GlcNAc(b1-3)Gal(b1-4)GlcNAc(b1-3)Gal(b1-4)GlcNAc(b1-3)Gal(b1-4)GlcNAc(b1-3)Gal(b1-4)GlcNAc(b1-2)[Gal(b1-4)GlcNAc(b1-3)Gal(b1-4)GlcNAc(b1-3)Gal(b1-4)GlcNAc(b1-3)Gal(b1-4)GlcNAc(b1-3)Gal(b1-4)GlcNAc(b1-6)]Man(a1-6)[Gal(b1-4)GlcNAc(b1-3)Gal(b1-4)GlcNAc(b1-3)Gal(b1-4)GlcNAc(b1-3)Gal(b1-4)GlcNAc(b1-3)Gal(b1-4)GlcNAc(b1-2)Man(a1-3)]Man(b1-4)GlcNAc(b1-4)[Fuc(a1-6)]GlcNAc. A digest of the protocol:
as §1

The target in experiment [17] is Gal(b1-4)GlcNAc(b1-3)Gal(b1-4)GlcNAc(b1-3)Gal(b1-4)GlcNAc(b1-3)Gal(b1-4)GlcNAc(b1-3)Gal(b1-4)GlcNAc(b1-3)Gal(b1-4)GlcNAc(b1-2)Man(a1-3)[Gal(b1-4)GlcNAc(b1-3)Gal(b1-4)GlcNAc(b1-3)Gal(b1-4)GlcNAc(b1-3)Gal(b1-4)GlcNAc(b1-3)Gal(b1-4)GlcNAc(b1-3)Gal(b1-4)GlcNAc(b1-2)Man(a1-6)]Man(b1-4)GlcNAc(b1-4)GlcNAc. A digest of the protocol: as §1
Experiment [18] deals with Gal(b1-4)GlcNAc(b1-3)Gal(b1-4)GlcNAc(b1-3)GalNAc. The essentials: as §1
Experiment [19] addresses Gal(b1-4)GlcNAc(b1-3)Gal(b1-4)GlcNAc(b1-3)[Gal(b1-4)GlcNAc(b1-3)Gal(b1-4)GlcNAc(b1-6)]GalNAc. A digest of the protocol: as §1

B1: SAOUHSC 02783 (Staphylococcus aureus), Q5HD69 (protein)
chain: MIHSKKLTLGICLVLLIILIVGYVIMTKTNGRNAQIKDTFNQTLKLYPTKNLDDFYDKEGFRDQEFKKGDKGTWIVNSEMVIEPKGKDMETRGMVLYINRNTRTTKGYYFISEMTDDSNGRPKDDEKRYPVKMEHNKIIPTKPLPNDKLKKEIENFKFFVQYGNFKDINDYKDGDISYNPNVPSYSAKYQLNNDDYNVQQLRKRYDIPTKQAPKLLLKGDGDLKGSSVGSRSLEFTFVENKEENIYFTDSVQYTPSEDTRYESN
Turning to B1, the “glycan array binding signal (z-score)” value was -0.187 in [1]; 0.039 in experiment [2]; 2.58 in experiment [3]; -0.335 in experiment [4]; 0.532 in [5]; -1.48 in experiment [6]. Besides, the “glycan array binding signal (z-score)” value in [7] was -0.386; in [8] it was 1.11; in [9] it was 0.271; in experiment [10], -0.075; in experiment [11], 0.31; in experiment [12], 0.105. Besides, the “glycan array binding signal (z-score)” value is 0.292 in [13]; -0.383 in [14]; -0.006 in [15]; 1.04 in experiment [16]; 1.7 in experiment [17]; 0.101 in experiment [18]. In addition, the “glycan array binding signal (z-score)” value in experiment [19] was determined as 0.887.
